For at least one compound, name, drawing or mass did not settle the structure.
Key:
miR-100 = miR-100 expression in endothelial cells after cytokine, inhibitor or statin exposure (stem loop Taqman PCR); assay type: cell-based; conditions: human endothelial cells, 1 μM Simvastatin for 48 h, FIG. 17
From the text: MicoRNA expression was validated by quantitative stem-loop PCR technology (TaqMan MicroRNA Assays, Applied Biosystems, Foster City, Calif.). The use of target-specific reverse transcription primers and TaqMan hybridization probes allows the specific detection of mature microRNAs. MicroRNA expression was normalized to the expression of the small RNAs rnu19 and rnu48.
To search for possible inducers of miR-100 downregulation in endothelial cells, several pro-angiogenic or pro-arteriogenic cytokines were screened for effects on miR-100 expression.
FIG. 16 [A]: Human endothelial cells were stimulated 10 ng/ml TNF-α for different time points. RNA was isolated and quantified using Taqman based Stem loop PCR.
FIG. 16 [B]: The NF-kappaB inhibitor PS1145 (10 μM) was added to TNF-α stimulated (10 ng/ml) human endothelial cells and the miR-100 expression level, compared to controls without PS1145, were measured using Stem loop Taqman PCR.
Human endothelial cells were stimulated with 1 μM Simvastatin for 48 h.

[1] = system: murine hindlimb ischemia model; assay: murine hindlimb ischemia model, perfusion restoration and capillary density; assay type: in vivo, C57/BI6J mice
Method: The murine hindlimb ischemia model conforms to the Guide for the Care and Use of Laboratory Animals published by the U.S. National Institutes of Health and was performed after securing appropriate institutional approval. Unilateral femoral artery occlusion was performed in C57/BI6J mice (Charles River Lab., Sulzfeld, Germany) by double ligation of the superficial femoral artery proximal to the deep femoral artery and the distal femoral artery just above the knee joint. A sham operation without arterial occlusion was performed on the contralateral leg. For molecular biology, histology and in situ hybridization, tissue was carefully dissected and snap-frozen in liquid nitrogen until further analysis. For dissection of isolated collateral arteries, the hindlimb vasculature was […] with liquid latex, to allow the identification and isolation of individual arterial vessels.
To assess whether inhibition of miR-100 can be be used to stimulate revascularization in vivo, mice were treated with a specific antagomir against miR-100 after induction of unilateral hindlimb ischemia.
In addition, two separate groups of mice were treated with daily injections of the mTOR-inhibitor rapamycin or solvent to investigate the timecourse of hindlimb perfusion restoration under conditions of endogenous miR-100 downregulation, but impaired signalling of its target gene mTOR.

SMILES | miR-100 expression (miR-100) | miR-100 expression (miR-100; listed as simvastatin) | capillary density ([1]; distal hindlimb / ischemic tissue) | perfusion restoration (blood flow restoration) ([1]; mice, after femoral artery occlusion, day 7, vs control-antagomirs or solvent, FIG. 9)
CCC(C)(C)C(=O)O[C@H]1C[C@@H](C)C=C2C=C[C@H](C)[C@H](CC[C@@H]3C[C@@H](O)CC(=O)O3)[C@H]21 [Simvastatin, reference compound] | upregulates miR-100 expression | upregulated | – | –
CO[C@H]1C[C@@H]2CC[C@@H](C)[C@@](O)(O2)C(=O)C(=O)N2CCCC[C@H]2C(=O)O[C@H]([C@H](C)C[C@@H]2CC[C@@H](O)[C@H](OC)C2)CC(=O)[C@H](C)/C=C(\C)[C@@H](O)[C@@H](OC)C(=O)[C@H](C)C[C@H](C)/C=C/C=C/C=C/1C [rapamycin, reference compound] | – | – | decreased capillary density | significant attenuation of blood flow restoration

Reference: US20140377324A1, “Pharmaceutical Composition Comprising miRNA-100 And Its Use In The Modulation of Blood Vessel Growth and Endothelial Inflammation” (Universitatsklinikum Freiburg, priority 2009, published 2014)
